# Assay results taken from article PMC5775349.
# Protein sequences, listed by entry. Tags and fused reporters are not part of them.
# UniProt P40160: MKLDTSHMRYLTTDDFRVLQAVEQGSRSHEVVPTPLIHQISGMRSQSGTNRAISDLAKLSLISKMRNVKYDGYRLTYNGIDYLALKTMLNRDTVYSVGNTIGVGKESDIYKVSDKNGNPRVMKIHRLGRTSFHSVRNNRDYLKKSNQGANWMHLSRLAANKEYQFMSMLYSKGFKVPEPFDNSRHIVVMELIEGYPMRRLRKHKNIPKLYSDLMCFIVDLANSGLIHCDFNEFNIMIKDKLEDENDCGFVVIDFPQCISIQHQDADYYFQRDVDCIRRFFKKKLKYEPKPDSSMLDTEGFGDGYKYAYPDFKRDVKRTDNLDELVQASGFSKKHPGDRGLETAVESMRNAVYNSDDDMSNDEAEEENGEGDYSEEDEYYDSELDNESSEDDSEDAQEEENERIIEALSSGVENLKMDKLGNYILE
# Changes are numbered by the printed parent chain. In names and notes the source's numbering stands. These are yes or no findings as the source states them, for the method shown. Binding seen in cells or lysates may run through a third protein. Some binding calls cover weakened binding; strength is not graded here. Tags and fused reporters may be left off the sequences shown.
# T1: HA-tagged ribosomal protein uS7 (Rps5), wild type (S. cerevisiae) (UniProt P26783)
# T1 sequence: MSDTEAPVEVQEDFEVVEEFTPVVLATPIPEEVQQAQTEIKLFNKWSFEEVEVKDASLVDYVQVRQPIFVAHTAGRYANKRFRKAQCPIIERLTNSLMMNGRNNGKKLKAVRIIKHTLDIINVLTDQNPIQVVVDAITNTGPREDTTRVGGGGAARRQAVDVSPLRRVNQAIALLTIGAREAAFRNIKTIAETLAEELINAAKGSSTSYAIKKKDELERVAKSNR
# T2: Ypk1, endogenous (S. cerevisiae (endogenous in yeast cells)) (UniProt P12688)
# T2 sequence: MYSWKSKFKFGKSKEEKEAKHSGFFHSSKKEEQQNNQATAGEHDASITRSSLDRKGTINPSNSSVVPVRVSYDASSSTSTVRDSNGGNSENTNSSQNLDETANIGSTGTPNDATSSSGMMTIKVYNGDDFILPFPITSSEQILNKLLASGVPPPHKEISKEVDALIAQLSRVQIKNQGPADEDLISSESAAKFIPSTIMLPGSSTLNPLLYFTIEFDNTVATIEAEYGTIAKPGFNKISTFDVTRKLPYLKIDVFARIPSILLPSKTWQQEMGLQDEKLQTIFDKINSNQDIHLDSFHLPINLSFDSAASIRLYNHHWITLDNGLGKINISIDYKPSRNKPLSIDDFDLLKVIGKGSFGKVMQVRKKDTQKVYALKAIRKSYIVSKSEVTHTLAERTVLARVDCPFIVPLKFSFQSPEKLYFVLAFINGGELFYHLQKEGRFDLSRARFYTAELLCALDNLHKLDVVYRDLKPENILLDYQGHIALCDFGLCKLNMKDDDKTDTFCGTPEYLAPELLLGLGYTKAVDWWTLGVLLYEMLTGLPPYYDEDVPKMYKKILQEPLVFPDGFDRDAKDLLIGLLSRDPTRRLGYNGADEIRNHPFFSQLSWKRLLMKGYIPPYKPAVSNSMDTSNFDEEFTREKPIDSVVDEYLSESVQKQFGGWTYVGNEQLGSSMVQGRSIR
# B1: Ypk1, endogenous (enzyme, UniProt P12688 1-680)
# chain: T2 sequence
# B2: HA-tagged ribosomal protein uS7 (Rps5), wild type (protein, UniProt P26783 1-225)
# chain: T1 sequence
# B3: HA-tagged ribosomal protein uS7 (Rps5) S223A (protein, UniProt P26783 1-225)
# chain: T1 sequence with S223A
# Legend:
# [1] = molecular target: T1, HA-tagged ribosomal protein uS7 (Rps5), wild type (S. cerevisiae); assay: co-IP; yeast lysate pre-cleared with Protein G Sepharose; 2xHA-uS7 or Ypk1 immunoprecipitated with anti-HA or anti-Ypk1 antibody and protein G-Sepharose; Western blotting
# [2] = molecular target: T2, Ypk1, endogenous (S. cerevisiae (endogenous in yeast cells)); assay: as above
# [3] = molecular target: TAP-tagged Rio2 (S. cerevisiae) (UniProt P40160); assay: co-IP; lysate of a TAP-Rio2 strain expressing HA-tagged WT or S223A uS7; TAP-Rio2 precipitated with IgG-Sepharose; uS7 detected by anti-HA, TAP-Rio2 by anti-CBP
Binder,binding [1],binding [2],binding [3]
B1,binds,,
B2,,binds weakly,binds
B3,,,binds
